{"source": "PubChem BioAssay AID1259308 – NCATS – 2017", "screen": "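Knock-downs that increase output of a recombinant reporter protein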 (primary screen)", "cells": "human HEK293 embryonic kidney cells stably expressing firefly luciferase (HEK-CMV-Luc2-Hygro)", "knock-down reagent": "single siRNA against human genes, 0.8 pmol siRNA per well", "duration": "72 h", "measurement": "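Reporter luminescence and viable-cell signal on separate replicate plates, given as percent of non-targeting control and median/MAD z-scores, plus per-cell luciferase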", "direction": "total luciferase, z-score and total luciferase, % of control: higher = more reporter protein produced", "active means": "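Active when the median/MAD z-score for overall luciferase is greater than 3; a gene was taken forward for validation with new siRNAs if at least two of its three siRNAs passed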", "meaning of the calls": "active = raised luciferase; inactive = no rise", "note": "The whole screen tested about 59,000 reagents; shown is a part drawn at random. Of all reagents, about 1,510 (2.6%) are marked active. 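Calls use total luciferase alone and ignore viability, so some active siRNAs may act by altering cell number.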 Reagents against one gene are numbered here. Not all columns of the deposit are shown."}
{"target gene": "JUN (Jun proto-oncogene, AP-1 transcription factor subunit)", "reagent": 1, "total luciferase, z-score": -0.0646, "total luciferase, % of control": 80.6, "outcome": "inactive"}
{"target gene": "JUN (Jun proto-oncogene, AP-1 transcription factor subunit)", "reagent": 2, "total luciferase, z-score": 0.598, "total luciferase, % of control": 93.8, "outcome": "inactive"}
{"target gene": "JUN (Jun proto-oncogene, AP-1 transcription factor subunit)", "reagent": 3, "total luciferase, z-score": -0.516, "total luciferase, % of control": 71.6, "outcome": "inactive"}
{"target gene": "ANOS1 (anosmin 1)", "reagent": 1, "total luciferase, z-score": 0.239, "total luciferase, % of control": 86.6, "outcome": "inactive"}
{"target gene": "ANOS1 (anosmin 1)", "reagent": 2, "total luciferase, z-score": 0.284, "total luciferase, % of control": 87.5, "outcome": "inactive"}
{"target gene": "ANOS1 (anosmin 1)", "reagent": 3, "total luciferase, z-score": -0.813, "total luciferase, % of control": 65.7, "outcome": "inactive"}
{"target gene": "FAM170B (family with sequence similarity 170 member B)", "reagent": 1, "total luciferase, z-score": 0.444, "total luciferase, % of control": 90.7, "outcome": "inactive"}
{"target gene": "FAM170B (family with sequence similarity 170 member B)", "reagent": 2, "total luciferase, z-score": -0.567, "total luciferase, % of control": 70.6, "outcome": "inactive"}
{"target gene": "FAM170B (family with sequence similarity 170 member B)", "reagent": 3, "total luciferase, z-score": -0.113, "total luciferase, % of control": 79.6, "outcome": "inactive"}
{"target gene": "NDUFS2 (NADH:ubiquinone oxidoreductase core subunit S2)", "reagent": 1, "total luciferase, z-score": -2.29, "total luciferase, % of control": 36.3, "outcome": "inactive"}
{"target gene": "NDUFS2 (NADH:ubiquinone oxidoreductase core subunit S2)", "reagent": 2, "total luciferase, z-score": -0.195, "total luciferase, % of control": 78, "outcome": "inactive"}
{"target gene": "NDUFS2 (NADH:ubiquinone oxidoreductase core subunit S2)", "reagent": 3, "total luciferase, z-score": -1.1, "total luciferase, % of control": 60, "outcome": "inactive"}
{"target gene": "ZNF141 (zinc finger protein 141)", "reagent": 1, "total luciferase, z-score": 0.201, "total luciferase, % of control": 85.9, "outcome": "inactive"}
{"target gene": "ZNF141 (zinc finger protein 141)", "reagent": 2, "total luciferase, z-score": 0.588, "total luciferase, % of control": 93.6, "outcome": "inactive"}
{"target gene": "ZNF141 (zinc finger protein 141)", "reagent": 3, "total luciferase, z-score": -0.634, "total luciferase, % of control": 69.3, "outcome": "inactive"}
{"target gene": "POLR2J3 (RNA polymerase II subunit J3)", "reagent": 1, "total luciferase, z-score": -3.52, "total luciferase, % of control": 11.8, "outcome": "inactive"}
{"target gene": "POLR2J3 (RNA polymerase II subunit J3)", "reagent": 2, "total luciferase, z-score": -2.92, "total luciferase, % of control": 23.8, "outcome": "inactive"}
{"target gene": "POLR2J3 (RNA polymerase II subunit J3)", "reagent": 3, "total luciferase, z-score": -3.25, "total luciferase, % of control": 17.2, "outcome": "inactive"}
{"target gene": "COXFA4L3 (cytochrome c oxidase associated subunit FA4L3)", "reagent": 1, "total luciferase, z-score": 1.13, "total luciferase, % of control": 104, "outcome": "inactive"}
{"target gene": "COXFA4L3 (cytochrome c oxidase associated subunit FA4L3)", "reagent": 2, "total luciferase, z-score": 0.906, "total luciferase, % of control": 99.9, "outcome": "inactive"}
{"target gene": "COXFA4L3 (cytochrome c oxidase associated subunit FA4L3)", "reagent": 3, "total luciferase, z-score": -0.401, "total luciferase, % of control": 73.9, "outcome": "inactive"}
{"target gene": "CBX6 (chromobox 6)", "reagent": 1, "total luciferase, z-score": -1.16, "total luciferase, % of control": 58.8, "outcome": "inactive"}
{"target gene": "CBX6 (chromobox 6)", "reagent": 2, "total luciferase, z-score": -0.41, "total luciferase, % of control": 73.7, "outcome": "inactive"}
{"target gene": "CBX6 (chromobox 6)", "reagent": 3, "total luciferase, z-score": 0.456, "total luciferase, % of control": 90.9, "outcome": "inactive"}
{"target gene": "C5orf47 (chromosome 5 open reading frame 47)", "reagent": 1, "total luciferase, z-score": -0.527, "total luciferase, % of control": 71.4, "outcome": "inactive"}
{"target gene": "C5orf47 (chromosome 5 open reading frame 47)", "reagent": 2, "total luciferase, z-score": 0.496, "total luciferase, % of control": 91.7, "outcome": "inactive"}
{"target gene": "C5orf47 (chromosome 5 open reading frame 47)", "reagent": 3, "total luciferase, z-score": 1.38, "total luciferase, % of control": 109, "outcome": "inactive"}
{"target gene": "RPL13AP20 (ribosomal protein L13a pseudogene 20)", "reagent": 1, "total luciferase, z-score": -2.43, "total luciferase, % of control": 33.5, "outcome": "inactive"}
{"target gene": "RPL13AP20 (ribosomal protein L13a pseudogene 20)", "reagent": 2, "total luciferase, z-score": -2.37, "total luciferase, % of control": 34.7, "outcome": "inactive"}
{"target gene": "RPL13AP20 (ribosomal protein L13a pseudogene 20)", "reagent": 3, "total luciferase, z-score": -2.96, "total luciferase, % of control": 23, "outcome": "inactive"}
{"target gene": "SFRP2 (secreted frizzled related protein 2)", "reagent": 1, "total luciferase, z-score": -0.193, "total luciferase, % of control": 78.1, "outcome": "inactive"}
{"target gene": "SFRP2 (secreted frizzled related protein 2)", "reagent": 2, "total luciferase, z-score": 0.981, "total luciferase, % of control": 101, "outcome": "inactive"}
{"target gene": "SFRP2 (secreted frizzled related protein 2)", "reagent": 3, "total luciferase, z-score": 0.522, "total luciferase, % of control": 92.3, "outcome": "inactive"}
{"target gene": "COL9A1 (collagen type IX alpha 1 chain)", "reagent": 1, "total luciferase, z-score": -1.61, "total luciferase, % of control": 49.9, "outcome": "inactive"}
{"target gene": "COL9A1 (collagen type IX alpha 1 chain)", "reagent": 2, "total luciferase, z-score": 3.09, "total luciferase, % of control": 143, "outcome": "active"}
{"target gene": "COL9A1 (collagen type IX alpha 1 chain)", "reagent": 3, "total luciferase, z-score": 0.267, "total luciferase, % of control": 87.2, "outcome": "inactive"}
{"target gene": "ZNF596 (zinc finger protein 596)", "reagent": 1, "total luciferase, z-score": 1.36, "total luciferase, % of control": 109, "outcome": "inactive"}
{"target gene": "ZNF596 (zinc finger protein 596)", "reagent": 2, "total luciferase, z-score": 4.37, "total luciferase, % of control": 169, "outcome": "active"}
{"target gene": "ZNF596 (zinc finger protein 596)", "reagent": 3, "total luciferase, z-score": 1.68, "total luciferase, % of control": 115, "outcome": "inactive"}
{"target gene": "SPTLC2 (serine palmitoyltransferase long chain base subunit 2)", "reagent": 1, "total luciferase, z-score": 0.231, "total luciferase, % of control": 86.5, "outcome": "inactive"}
{"target gene": "SPTLC2 (serine palmitoyltransferase long chain base subunit 2)", "reagent": 2, "total luciferase, z-score": -1.2, "total luciferase, % of control": 57.9, "outcome": "inactive"}
{"target gene": "SPTLC2 (serine palmitoyltransferase long chain base subunit 2)", "reagent": 3, "total luciferase, z-score": -0.401, "total luciferase, % of control": 73.9, "outcome": "inactive"}
